Publication PMC11102138

The chains behind the UniProt entries cited, without tags or fusion partners. Residues count along the entry.
UniProt Q08857: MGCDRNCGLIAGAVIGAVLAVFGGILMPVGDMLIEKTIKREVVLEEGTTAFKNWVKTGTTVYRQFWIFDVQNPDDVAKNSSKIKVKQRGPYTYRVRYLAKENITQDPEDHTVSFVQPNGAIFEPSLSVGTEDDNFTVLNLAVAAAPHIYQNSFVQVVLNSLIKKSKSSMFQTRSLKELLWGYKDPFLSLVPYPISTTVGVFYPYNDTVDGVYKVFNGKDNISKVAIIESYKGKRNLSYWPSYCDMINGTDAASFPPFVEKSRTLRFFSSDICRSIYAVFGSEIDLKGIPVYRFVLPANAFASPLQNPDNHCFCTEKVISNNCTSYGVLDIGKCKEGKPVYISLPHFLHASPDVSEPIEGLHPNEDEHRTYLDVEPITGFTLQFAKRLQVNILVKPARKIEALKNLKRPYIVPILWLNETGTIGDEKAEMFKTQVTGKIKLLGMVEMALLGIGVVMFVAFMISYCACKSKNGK
UniProt O08677, residues 21-661: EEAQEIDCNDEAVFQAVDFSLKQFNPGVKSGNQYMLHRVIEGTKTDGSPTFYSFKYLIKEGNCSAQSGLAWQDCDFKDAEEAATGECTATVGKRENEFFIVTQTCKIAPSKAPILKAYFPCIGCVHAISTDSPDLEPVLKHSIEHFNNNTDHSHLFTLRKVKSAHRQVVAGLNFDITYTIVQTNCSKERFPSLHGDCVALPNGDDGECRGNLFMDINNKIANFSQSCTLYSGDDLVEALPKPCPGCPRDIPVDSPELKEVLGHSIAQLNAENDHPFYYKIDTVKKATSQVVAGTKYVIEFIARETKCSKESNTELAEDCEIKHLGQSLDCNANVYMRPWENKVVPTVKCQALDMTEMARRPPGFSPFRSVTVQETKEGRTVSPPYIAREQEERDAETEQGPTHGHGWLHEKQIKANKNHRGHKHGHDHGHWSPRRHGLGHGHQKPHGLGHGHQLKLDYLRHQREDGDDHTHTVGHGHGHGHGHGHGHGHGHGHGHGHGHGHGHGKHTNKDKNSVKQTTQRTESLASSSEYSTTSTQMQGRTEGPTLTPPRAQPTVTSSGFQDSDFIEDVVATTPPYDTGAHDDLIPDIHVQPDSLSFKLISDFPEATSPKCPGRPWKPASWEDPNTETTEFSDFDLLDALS
UniProt P01942: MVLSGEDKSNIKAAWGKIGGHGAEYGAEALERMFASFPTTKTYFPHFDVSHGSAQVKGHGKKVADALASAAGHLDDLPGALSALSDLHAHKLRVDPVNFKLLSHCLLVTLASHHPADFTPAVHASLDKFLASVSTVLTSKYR
UniProt P07724, residues 25-608: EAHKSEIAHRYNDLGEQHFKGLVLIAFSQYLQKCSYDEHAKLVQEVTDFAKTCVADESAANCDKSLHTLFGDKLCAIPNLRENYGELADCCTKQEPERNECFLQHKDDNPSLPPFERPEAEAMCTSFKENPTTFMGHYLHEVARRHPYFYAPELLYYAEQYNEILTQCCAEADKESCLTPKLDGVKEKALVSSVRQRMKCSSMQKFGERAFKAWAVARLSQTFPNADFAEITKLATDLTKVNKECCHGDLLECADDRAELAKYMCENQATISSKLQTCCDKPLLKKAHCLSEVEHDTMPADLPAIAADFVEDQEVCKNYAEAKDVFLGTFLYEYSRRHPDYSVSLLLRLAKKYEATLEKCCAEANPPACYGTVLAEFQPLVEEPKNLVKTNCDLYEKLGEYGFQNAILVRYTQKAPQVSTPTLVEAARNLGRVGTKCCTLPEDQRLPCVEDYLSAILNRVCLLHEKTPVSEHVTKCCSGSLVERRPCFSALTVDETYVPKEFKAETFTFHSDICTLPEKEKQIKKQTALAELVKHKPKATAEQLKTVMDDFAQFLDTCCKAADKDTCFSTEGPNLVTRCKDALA
UniProt Q3TFK5: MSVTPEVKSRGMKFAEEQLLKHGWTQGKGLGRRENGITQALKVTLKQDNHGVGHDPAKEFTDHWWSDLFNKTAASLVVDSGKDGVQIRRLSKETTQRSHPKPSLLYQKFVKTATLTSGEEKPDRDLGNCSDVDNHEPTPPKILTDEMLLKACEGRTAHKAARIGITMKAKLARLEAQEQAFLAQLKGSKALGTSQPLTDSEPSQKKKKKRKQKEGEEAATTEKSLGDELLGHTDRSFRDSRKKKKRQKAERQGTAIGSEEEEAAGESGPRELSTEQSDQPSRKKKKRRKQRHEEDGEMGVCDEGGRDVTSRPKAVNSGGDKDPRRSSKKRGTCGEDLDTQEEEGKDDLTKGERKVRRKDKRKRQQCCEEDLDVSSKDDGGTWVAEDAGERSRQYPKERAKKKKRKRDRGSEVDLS
UniProt Q61316: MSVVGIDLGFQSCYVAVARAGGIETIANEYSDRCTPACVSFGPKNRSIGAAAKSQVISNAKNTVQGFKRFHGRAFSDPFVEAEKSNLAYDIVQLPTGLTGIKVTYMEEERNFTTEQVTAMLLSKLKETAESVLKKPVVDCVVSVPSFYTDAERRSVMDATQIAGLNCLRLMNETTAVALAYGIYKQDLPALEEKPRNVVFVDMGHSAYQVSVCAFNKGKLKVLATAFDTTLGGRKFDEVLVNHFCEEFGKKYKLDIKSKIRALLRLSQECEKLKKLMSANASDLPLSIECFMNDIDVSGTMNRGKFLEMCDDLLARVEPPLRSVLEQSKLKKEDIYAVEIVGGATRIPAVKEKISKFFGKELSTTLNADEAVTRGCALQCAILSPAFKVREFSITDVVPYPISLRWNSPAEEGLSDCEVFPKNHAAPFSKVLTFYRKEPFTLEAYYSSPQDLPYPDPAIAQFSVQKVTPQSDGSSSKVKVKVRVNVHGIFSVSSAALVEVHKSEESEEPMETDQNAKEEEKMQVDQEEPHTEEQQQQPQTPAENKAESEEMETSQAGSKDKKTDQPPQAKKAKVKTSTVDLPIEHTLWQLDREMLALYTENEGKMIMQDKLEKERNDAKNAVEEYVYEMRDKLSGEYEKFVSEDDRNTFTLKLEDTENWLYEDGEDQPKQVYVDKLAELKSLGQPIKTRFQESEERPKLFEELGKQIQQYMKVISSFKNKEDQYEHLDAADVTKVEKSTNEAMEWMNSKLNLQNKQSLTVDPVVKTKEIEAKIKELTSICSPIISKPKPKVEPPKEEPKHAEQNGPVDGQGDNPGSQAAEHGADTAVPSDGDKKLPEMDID
UniProt Q9QX11: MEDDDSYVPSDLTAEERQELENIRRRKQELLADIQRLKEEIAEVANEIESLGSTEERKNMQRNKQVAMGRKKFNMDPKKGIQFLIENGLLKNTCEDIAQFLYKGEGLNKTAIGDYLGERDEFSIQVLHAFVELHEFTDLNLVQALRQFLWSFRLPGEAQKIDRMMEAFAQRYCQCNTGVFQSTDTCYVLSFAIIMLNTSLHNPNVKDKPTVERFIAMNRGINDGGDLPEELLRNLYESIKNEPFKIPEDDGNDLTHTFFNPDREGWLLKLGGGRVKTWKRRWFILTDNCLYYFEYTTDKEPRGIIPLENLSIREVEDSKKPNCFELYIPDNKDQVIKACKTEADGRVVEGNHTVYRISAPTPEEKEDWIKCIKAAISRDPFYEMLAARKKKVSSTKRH

molecular target: scavenger receptor CD36 (mouse (endogenous in primary B cells)) (UniProt Q08857); experiment: affinity purification with mass spectrometry; anti-CD36 immunoprecipitation from lysate of primary mouse B cells stimulated with 1 μM CpG; filter-aided trypsin digestion, TMT10plex labelling, LC-MS/MS; search against the human Swiss-Prot database, 1% FDR

| binding | Molecule |
| --- | --- |
| binds | KNG1 (from UniProt O08677 21-661) |
| binds | HBA (from UniProt P01942 1-142) |
| binds | ALB (from UniProt P07724 25-608) |
| binds | GPATCH4 (from UniProt Q3TFK5 1-415) |
| binds | HSPA4 (from UniProt Q61316 1-841) |
| binds | CYTH1 (from UniProt Q9QX11 1-398) |
| binds | CA1 (protein, UniProt P13634 1-261) MASADWGYGSENGPDQWSKLYPIANGNNQSPIDIKTSEANHDSSLKPLSISYNPATAKEIVNVGHSFHVIFDDSSNQSVLKGGPLADSYRLTQFHFHWGNSNDHGSEHTVDGTRYSGELHLVHWNSAKYSSASEAISKADGLAILGVLMKVGPANPSLQKVLDALNSVKTKGKRAPFTNFDPSSLLPSSLDYWTYFGSLTHPPLHESVTWVICKDSISLSPEQLAQLRGLLSSAEGEPAVPVLSNHRPPQPLKGRTVRASF |
| binds | GC (protein, UniProt P21614 17-476) LERGRDYEKDKVCNELAMLGKEDFRSLSLILYSRKFSSSTFEQVNQLVKEVVSLTEECCAEGADPTCYDTRTSELSVKSCESDAPFPVHPGTPECCTKEGLERKLCMAALSHQPQEFPTYVEPTNDEICEAFRRDPKGFADQFLYEYSSNYGQAPLPLLVAYTKNYLSMVGSCCTSANPTVCFVKERLQMKHLSLLTTMSNRVCSQYAAYGKEKSRLSHLIKLAQKVPTANLENVLPLAEDFTEILSRCCESTSEDCMASELPEHTIKICQNLSKKNSKFEECCQENTPMNIFMCTYFMPAAEPLQLPAIKLPTGKDLCGQSTTQAMDQYTFELSRRTQVPEVFLSKVLEPTLKTLRECCDTQDSVACFSTQSPLLKRQLTSFIEKGQEMCADYSENTFTEYKKKLAERLRTKTPNTSPAELKDMVEKHSDFASKCCSINSPPLYCSSQIDAEMIDTLQS |

Results are given in words; binding and its absence hold for the method and conditions named. Binding seen in cells or lysates may run through a third protein. Here binding means that the protein was enriched with, or labelled near, the bait; the list need not be complete.
